In experiment [1] the target is T1, TP73 (human (endogenous in HepG2)) (UniProt O15350).
T1 sequence: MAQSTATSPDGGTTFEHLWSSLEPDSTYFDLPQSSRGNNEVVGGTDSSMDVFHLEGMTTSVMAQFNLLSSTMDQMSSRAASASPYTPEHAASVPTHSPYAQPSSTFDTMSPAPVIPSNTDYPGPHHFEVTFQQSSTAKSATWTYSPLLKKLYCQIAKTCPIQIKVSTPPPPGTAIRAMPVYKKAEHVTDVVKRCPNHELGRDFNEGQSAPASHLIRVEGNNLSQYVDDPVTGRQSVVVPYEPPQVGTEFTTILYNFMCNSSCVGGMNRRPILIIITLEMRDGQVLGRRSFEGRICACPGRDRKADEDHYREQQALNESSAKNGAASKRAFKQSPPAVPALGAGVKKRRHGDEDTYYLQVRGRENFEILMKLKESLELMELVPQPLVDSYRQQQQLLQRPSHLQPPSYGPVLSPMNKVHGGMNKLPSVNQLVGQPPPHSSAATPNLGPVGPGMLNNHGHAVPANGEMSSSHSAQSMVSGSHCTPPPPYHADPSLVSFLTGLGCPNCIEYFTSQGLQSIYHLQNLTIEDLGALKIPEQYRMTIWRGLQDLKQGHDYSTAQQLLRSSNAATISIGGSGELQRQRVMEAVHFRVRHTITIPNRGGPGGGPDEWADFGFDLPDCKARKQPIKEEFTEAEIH
The experiment is described as follows: co-IP; 200 uL HepG2 nuclear extract (extraction buffer 25 mM Tris-HCl pH 7.4, 300 mM NaCl, 1 mM DTT, 1% triton-100, 0.1% SDS) with 5 ug antibody against TP73, TBP, GTF3C2 or GTF3C3; protein A/G agarose; washed with modified RIPA buffer (300 mM NaCl); western blot. In general terms: Immunoblotting shows a protein as a band on a membrane.

Chains of the proteins cited; added tags and fusions are not shown.
UniProt P20226: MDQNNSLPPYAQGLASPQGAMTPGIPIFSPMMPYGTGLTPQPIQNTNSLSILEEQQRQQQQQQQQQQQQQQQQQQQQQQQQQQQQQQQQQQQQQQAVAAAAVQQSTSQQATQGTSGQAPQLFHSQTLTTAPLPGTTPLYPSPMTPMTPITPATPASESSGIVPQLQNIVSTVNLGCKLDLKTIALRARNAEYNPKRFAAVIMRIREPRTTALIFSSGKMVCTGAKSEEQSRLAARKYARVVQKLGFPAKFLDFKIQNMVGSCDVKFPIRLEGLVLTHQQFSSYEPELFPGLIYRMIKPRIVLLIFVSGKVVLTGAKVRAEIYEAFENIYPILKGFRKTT

Experiment [2] addresses T2, BRF1 (human (endogenous in HepG2)) (UniProt Q92994).
T2 sequence: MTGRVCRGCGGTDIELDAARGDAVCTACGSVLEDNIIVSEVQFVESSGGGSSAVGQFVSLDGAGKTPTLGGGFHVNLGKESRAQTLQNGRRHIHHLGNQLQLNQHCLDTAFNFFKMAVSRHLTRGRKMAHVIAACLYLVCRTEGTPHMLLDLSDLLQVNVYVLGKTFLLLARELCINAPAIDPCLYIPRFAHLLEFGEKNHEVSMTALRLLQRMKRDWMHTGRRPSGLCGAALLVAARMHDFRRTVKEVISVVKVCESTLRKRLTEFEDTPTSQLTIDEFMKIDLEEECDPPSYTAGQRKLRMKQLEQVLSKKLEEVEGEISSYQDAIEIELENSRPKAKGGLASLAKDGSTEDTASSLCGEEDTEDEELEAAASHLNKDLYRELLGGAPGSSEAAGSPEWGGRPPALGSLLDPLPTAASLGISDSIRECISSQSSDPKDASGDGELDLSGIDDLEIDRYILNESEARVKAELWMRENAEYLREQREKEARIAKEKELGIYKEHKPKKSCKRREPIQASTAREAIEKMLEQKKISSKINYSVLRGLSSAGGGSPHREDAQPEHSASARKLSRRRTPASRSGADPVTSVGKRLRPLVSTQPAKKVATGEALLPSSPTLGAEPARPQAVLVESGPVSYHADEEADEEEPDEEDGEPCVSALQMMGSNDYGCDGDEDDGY
The experiment is described as follows: co-IP; HepG2 cells expressing TP73 shRNA or control shRNA; antibodies against TBP, BRF1 and BRF2; western blot.

Experiment [3] has as its target TBP (human (endogenous in HepG2)) (UniProt P20226). The description is as above.
Experiment [4] has as its target T3, GTF3C3 (human (endogenous in HepG2)) (UniProt Q9Y5Q9).
T3 sequence: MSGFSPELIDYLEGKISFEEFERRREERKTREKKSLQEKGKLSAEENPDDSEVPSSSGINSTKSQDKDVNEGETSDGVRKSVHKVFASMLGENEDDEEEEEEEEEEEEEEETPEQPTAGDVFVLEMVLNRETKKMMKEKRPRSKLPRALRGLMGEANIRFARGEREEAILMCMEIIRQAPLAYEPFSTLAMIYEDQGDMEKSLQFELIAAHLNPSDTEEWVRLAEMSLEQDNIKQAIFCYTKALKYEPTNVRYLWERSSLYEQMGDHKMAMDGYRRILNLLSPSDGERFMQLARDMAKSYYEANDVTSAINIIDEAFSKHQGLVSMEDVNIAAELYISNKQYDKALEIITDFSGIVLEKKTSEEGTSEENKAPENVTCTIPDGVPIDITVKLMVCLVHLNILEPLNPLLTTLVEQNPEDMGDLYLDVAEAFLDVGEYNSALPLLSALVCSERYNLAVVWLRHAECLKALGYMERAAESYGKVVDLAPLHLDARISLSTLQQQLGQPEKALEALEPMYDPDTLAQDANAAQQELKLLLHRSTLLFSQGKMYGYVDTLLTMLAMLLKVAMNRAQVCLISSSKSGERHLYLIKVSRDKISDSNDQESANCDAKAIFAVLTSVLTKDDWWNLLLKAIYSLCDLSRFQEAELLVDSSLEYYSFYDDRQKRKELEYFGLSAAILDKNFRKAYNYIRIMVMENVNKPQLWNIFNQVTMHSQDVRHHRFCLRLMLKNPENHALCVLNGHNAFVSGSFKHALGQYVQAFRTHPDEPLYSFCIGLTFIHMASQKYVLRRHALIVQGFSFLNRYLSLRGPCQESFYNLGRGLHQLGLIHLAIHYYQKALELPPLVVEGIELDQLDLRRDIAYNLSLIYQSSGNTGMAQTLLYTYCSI
Description: co-IP; 200 uL HepG2 nuclear extract (extraction buffer 25 mM Tris-HCl pH 7.4, 300 mM NaCl, 1 mM DTT, 1% triton-100, 0.1% SDS) with 5 ug antibody against TP73, TBP, GTF3C2 or GTF3C3; protein A/G agarose; washed with modified RIPA buffer (300 mM NaCl); western blot.

Experiment [5] deals with T4, GTF3C2 (human (endogenous in HepG2)) (UniProt Q8WUA4).
T4 sequence: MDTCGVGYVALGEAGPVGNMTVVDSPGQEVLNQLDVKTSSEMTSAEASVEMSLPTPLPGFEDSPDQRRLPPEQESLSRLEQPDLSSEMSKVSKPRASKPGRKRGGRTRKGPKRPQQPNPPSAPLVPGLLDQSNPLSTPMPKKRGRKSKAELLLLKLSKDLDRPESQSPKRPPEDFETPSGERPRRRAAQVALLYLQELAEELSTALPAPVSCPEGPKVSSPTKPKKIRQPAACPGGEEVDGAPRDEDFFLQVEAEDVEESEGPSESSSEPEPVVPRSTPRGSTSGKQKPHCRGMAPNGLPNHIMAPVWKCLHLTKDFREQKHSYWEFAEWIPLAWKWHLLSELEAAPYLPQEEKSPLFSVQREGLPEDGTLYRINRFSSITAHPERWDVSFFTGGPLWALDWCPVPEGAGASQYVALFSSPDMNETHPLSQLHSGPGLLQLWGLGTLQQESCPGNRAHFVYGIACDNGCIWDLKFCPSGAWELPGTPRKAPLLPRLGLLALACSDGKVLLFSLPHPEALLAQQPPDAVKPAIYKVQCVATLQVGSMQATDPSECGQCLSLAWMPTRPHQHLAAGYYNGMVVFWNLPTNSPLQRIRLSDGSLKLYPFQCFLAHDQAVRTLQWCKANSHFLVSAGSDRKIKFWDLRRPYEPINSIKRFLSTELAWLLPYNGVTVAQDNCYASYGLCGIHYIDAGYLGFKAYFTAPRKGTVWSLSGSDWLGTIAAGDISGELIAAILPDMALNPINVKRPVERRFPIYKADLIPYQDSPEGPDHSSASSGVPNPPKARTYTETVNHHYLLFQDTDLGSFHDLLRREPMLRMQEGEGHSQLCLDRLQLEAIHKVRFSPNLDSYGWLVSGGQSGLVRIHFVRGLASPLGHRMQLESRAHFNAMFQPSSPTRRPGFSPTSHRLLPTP
The experiment is described as above.

Experiment [6] addresses TBP (human (endogenous in HepG2)) (UniProt P20226). The experiment is described as above.

Experimental findings from publication PMC9851613 are described below.

Results are given in words; binding and its absence hold for the method and conditions named. In cells and extracts the contact can be indirect. Some results given as binding are weak or reduced against the parent protein; the word gives no strength.

For TBP (from UniProt P20226 1-339), the binding result in experiment [1] and in experiment [2] was “binds” in each case.

B1: BRF1 (protein, UniProt Q92994 1-677)
chain: MTGRVCRGCGGTDIELDAARGDAVCTACGSVLEDNIIVSEVQFVESSGGGSSAVGQFVSLDGAGKTPTLGGGFHVNLGKESRAQTLQNGRRHIHHLGNQLQLNQHCLDTAFNFFKMAVSRHLTRGRKMAHVIAACLYLVCRTEGTPHMLLDLSDLLQVNVYVLGKTFLLLARELCINAPAIDPCLYIPRFAHLLEFGEKNHEVSMTALRLLQRMKRDWMHTGRRPSGLCGAALLVAARMHDFRRTVKEVISVVKVCESTLRKRLTEFEDTPTSQLTIDEFMKIDLEEECDPPSYTAGQRKLRMKQLEQVLSKKLEEVEGEISSYQDAIEIELENSRPKAKGGLASLAKDGSTEDTASSLCGEEDTEDEELEAAASHLNKDLYRELLGGAPGSSEAAGSPEWGGRPPALGSLLDPLPTAASLGISDSIRECISSQSSDPKDASGDGELDLSGIDDLEIDRYILNESEARVKAELWMRENAEYLREQREKEARIAKEKELGIYKEHKPKKSCKRREPIQASTAREAIEKMLEQKKISSKINYSVLRGLSSAGGGSPHREDAQPEHSASARKLSRRRTPASRSGADPVTSVGKRLRPLVSTQPAKKVATGEALLPSSPTLGAEPARPQAVLVESGPVSYHADEEADEEEPDEEDGEPCVSALQMMGSNDYGCDGDEDDGY
As to B1, in experiment [3], the binding result is recorded as “binds”.

B2: TP73 (protein, UniProt O15350 1-636)
chain: MAQSTATSPDGGTTFEHLWSSLEPDSTYFDLPQSSRGNNEVVGGTDSSMDVFHLEGMTTSVMAQFNLLSSTMDQMSSRAASASPYTPEHAASVPTHSPYAQPSSTFDTMSPAPVIPSNTDYPGPHHFEVTFQQSSTAKSATWTYSPLLKKLYCQIAKTCPIQIKVSTPPPPGTAIRAMPVYKKAEHVTDVVKRCPNHELGRDFNEGQSAPASHLIRVEGNNLSQYVDDPVTGRQSVVVPYEPPQVGTEFTTILYNFMCNSSCVGGMNRRPILIIITLEMRDGQVLGRRSFEGRICACPGRDRKADEDHYREQQALNESSAKNGAASKRAFKQSPPAVPALGAGVKKRRHGDEDTYYLQVRGRENFEILMKLKESLELMELVPQPLVDSYRQQQQLLQRPSHLQPPSYGPVLSPMNKVHGGMNKLPSVNQLVGQPPPHSSAATPNLGPVGPGMLNNHGHAVPANGEMSSSHSAQSMVSGSHCTPPPPYHADPSLVSFLTGLGCPNCIEYFTSQGLQSIYHLQNLTIEDLGALKIPEQYRMTIWRGLQDLKQGHDYSTAQQLLRSSNAATISIGGSGELQRQRVMEAVHFRVRHTITIPNRGGPGGGPDEWADFGFDLPDCKARKQPIKEEFTEAEIH
Consider B2, for which the binding result in experiment [4], in experiment [5] and in experiment [6] was “binds” each time.
